For this assay, the target named is T1, EhiCA (Entamoeba histolytica, UniProt C4LXK3).
T1 construct: gene EHI_073380; His-tag cleaved with thrombin; 21 kDa (21/25 kDa doublet); one Zn per chain; Zn ligands Cys50, His103, Cys106, dyad Asp52-Arg54; dimer and trimer seen on SDS-PAGE
T1 sequence (C4LXK3 1-188): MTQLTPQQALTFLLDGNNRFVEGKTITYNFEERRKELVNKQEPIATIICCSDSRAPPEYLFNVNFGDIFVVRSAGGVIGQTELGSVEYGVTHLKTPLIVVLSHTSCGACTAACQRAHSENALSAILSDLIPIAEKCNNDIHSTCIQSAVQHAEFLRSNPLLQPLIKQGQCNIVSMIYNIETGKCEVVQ
Format: biochemical. As to conditions: read-out: KI (Acetazolamide).

We go through one molecule from publication PMC6321543, “Cloning, Characterization and Anion Inhibition Studies of a β-Carbonic Anhydrase from the Pathogenic Protozoan Entamoeba histolytica” (Molecules, 2018).

The term Ki denotes a dissociation constant, usually derived from enzyme kinetics or from competition with a known ligand.

Turning to `CC(=O)Nc1nnc(S(N)(=O)=O)s1` [acetazolamide, 5-acetamido-1,3,4-thiadiazole-2-sulfonamide], the Ki worked out at 509 nM.
